The supplement of paper PMC8728848
The other results are listed elsewhere or left out.

Experiments:
Test in all cases: glycan array binding signal (z-score within array); higher = stronger binding
Conditions in all cases: glycan notation: IUPAC condensed, linker removed
Gal6S(b1-4)Glc = target: Gal6S(b1-4)Glc
How it was run: (§1)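 Negative Z-scores can be read as non-binding. The Z-score is calculated within each array and then averaged across arrays of one protein sequence at different concentrations or buffers and across linkers. Arrays, 3228 in all, were curated from the Consortium for Functional Glycomics database and kept only where the protein sequence was available.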

Gal6S(b1-4)Glc6S = target: Gal6S(b1-4)Glc6S
How it was run: as §1

Gal6S(b1-4)GlcNAc = target: Gal6S(b1-4)GlcNAc
How it was run: as §1

Gal6S(b1-4)GlcNAc6S = target: Gal6S(b1-4)GlcNAc6S
How it was run: as §1

GalNAc(a1-3)Gal = target: GalNAc(a1-3)Gal
How it was run: as §1

GalNAc(a1-3)GalNAc = target: GalNAc(a1-3)GalNAc
How it was run: as §1

[1] = target: GalNAc(a1-3)GalNAc(a1-3)Gal(a1-4)Gal(b1-4)GlcNAc
How it was run: as §1

GalNAc(b1-3)Gal = target: GalNAc(b1-3)Gal
How it was run: as §1

[2] = target: GalNAc(b1-3)Gal(a1-4)Gal(b1-4)GlcNAc
How it was run: as §1

[3] = target: GalNAc(b1-3)Gal(a1-4)Gal(b1-4)GlcNAc(b1-3)Gal(b1-4)Glc
How it was run: as §1

[4] = target: GalNAc(b1-3)Gal(a1-6)Gal(b1-4)Glc
How it was run: as §1

GalNAc(b1-3)GalNAc = target: GalNAc(b1-3)GalNAc
How it was run: as §1

GalNAc(b1-4)GlcNAc = target: GalNAc(b1-4)GlcNAc
How it was run: as §1

[5] = target: GalNAc(b1-4)GlcNAc(b1-2)Man(a1-3)[GalNAc(b1-4)GlcNAc(b1-2)Man(a1-6)]Man(b1-4)GlcNAc(b1-4)GlcNAc
How it was run: as §1

Glc(a1-4)Glc = target: Glc(a1-4)Glc
How it was run: as §1

Glc(a1-6)Glc(a1-6)Glc = target: Glc(a1-6)Glc(a1-6)Glc
How it was run: as §1

Glc(b1-4)Glc = target: Glc(b1-4)Glc
How it was run: as §1

Glc(b1-6)Glc = target: Glc(b1-6)Glc
How it was run: as §1

GlcA(b1-3)Gal = target: GlcA(b1-3)Gal
How it was run: as §1

GlcA(b1-3)GlcNAc = target: GlcA(b1-3)GlcNAc
How it was run: as §1

GlcA(b1-6)Gal = target: GlcA(b1-6)Gal
How it was run: as §1

[6] = target: GlcNAc(a1-3)Gal(b1-4)GlcNAc
How it was run: as §1

[7] = target: GlcNAc(a1-4)Gal(b1-3)GlcNAc
How it was run: as §1

[8] = target: GlcNAc(a1-4)Gal(b1-4)GalNAc
How it was run: as §1

[9] = target: GlcNAc(a1-4)Gal(b1-4)GlcNAc
How it was run: as §1

[10] = target: GlcNAc(a1-4)Gal(b1-4)GlcNAc(b1-3)Gal(b1-4)Glc
How it was run: as §1

[11] = target: GlcNAc(a1-4)Gal(b1-4)GlcNAc(b1-3)Gal(b1-4)GlcNAc
How it was run: as §1

[12] = target: GlcNAc(a1-4)Gal(b1-4)GlcNAc(b1-3)Gal(b1-4)GlcNAc(b1-3)Gal(b1-4)GlcNAc
How it was run: as §1

[13] = target: GlcNAc(a1-4)Gal(b1-4)GlcNAc(b1-3)Gal(b1-4)[Fuc(a1-3)]GlcNAc(b1-3)Gal(b1-4)[Fuc(a1-3)]GlcNAc
How it was run: as §1

[14] = target: GlcNAc(a1-6)Gal(b1-4)GlcNAc
How it was run: as §1

[15] = target: GlcNAc(b1-2)Gal(b1-3)GalNAc
How it was run: as §1

[16] = target: GlcNAc(b1-2)Man(a1-3)[GlcNAc(b1-2)Man(a1-6)]Man(b1-4)GlcNAc(b1-4)GlcNAc
How it was run: as §1

[17] = target: GlcNAc(b1-2)Man(a1-3)[GlcNAc(b1-2)Man(a1-6)]Man(b1-4)GlcNAc(b1-4)[Fuc(a1-6)]GlcNAc
How it was run: as §1

[18] = target: GlcNAc(b1-2)[GlcNAc(b1-4)]Man(a1-3)[GlcNAc(b1-2)Man(a1-6)]Man(b1-4)GlcNAc(b1-4)GlcNAc
How it was run: as §1

GlcNAc(b1-3)Gal = target: GlcNAc(b1-3)Gal
How it was run: as §1

[19] = target: GlcNAc(b1-3)Gal(b1-3)GalNAc
How it was run: as §1

GlcNAc(b1-3)Gal(b1-4)Glc = target: GlcNAc(b1-3)Gal(b1-4)Glc
How it was run: as §1

[20] = target: GlcNAc(b1-3)Gal(b1-4)GlcNAc
How it was run: as §1

B1: PEB4 (Campylobacter jejuni), A1VYV6 (protein)
chain: MKKFSLVAAALIAGVALNVNAATVATVNGKSISDAEVSEFFAPMLRGQDFKTLPDNQKKALIQQYIMQDLILQDAKKQNLEKDPLYTKELDRAKDAILVNVYQEKILNTIKIDAAKVKAFYDQNKDKYVKPARVQAKHILVATEKEAKDIINELKGLKGKELDAKFSELAKEKSIDPGSKNQGGELGWFDQSTMVKPFTDAAFALKNGTITTTPVKTNFGYHVILKENSQAKGQIKFDEVKQGIENGLKFEEFKKVINQKGQDLLNSAKVEYK
glycan array binding signal (z-score) (Gal6S(b1-4)Glc): -0.434 | glycan array binding signal (z-score) (Gal6S(b1-4)Glc6S): -0.6 | glycan array binding signal (z-score) (Gal6S(b1-4)GlcNAc): 0.243 | glycan array binding signal (z-score) (Gal6S(b1-4)GlcNAc6S): -0.109 | glycan array binding signal (z-score) (GalNAc(a1-3)Gal): -0.108 | glycan array binding signal (z-score) (GalNAc(a1-3)GalNAc): 0.033 | glycan array binding signal (z-score) [1]: 1.1 | glycan array binding signal (z-score) (GalNAc(b1-3)Gal): -0.614 | glycan array binding signal (z-score) [2]: -1.81 | glycan array binding signal (z-score) [3]: -0.827 | glycan array binding signal (z-score) [4]: -0.249 | glycan array binding signal (z-score) (GalNAc(b1-3)GalNAc): -0.631 | glycan array binding signal (z-score) (GalNAc(b1-4)GlcNAc): -0.169 | glycan array binding signal (z-score) [5]: 2.15 | glycan array binding signal (z-score) (Glc(a1-4)Glc): 1.05 | glycan array binding signal (z-score) (Glc(a1-6)Glc(a1-6)Glc): -1.19 | glycan array binding signal (z-score) (Glc(b1-4)Glc): -0.17 | glycan array binding signal (z-score) (Glc(b1-6)Glc): -0.728 | glycan array binding signal (z-score) (GlcA(b1-3)Gal): -0.678 | glycan array binding signal (z-score) (GlcA(b1-3)GlcNAc): 0.752 | glycan array binding signal (z-score) (GlcA(b1-6)Gal): -0.68 | glycan array binding signal (z-score) [6]: -0.109 | glycan array binding signal (z-score) [7]: 0.418 | glycan array binding signal (z-score) [8]: -0.27 | glycan array binding signal (z-score) [9]: 0.987 | glycan array binding signal (z-score) [10]: 1.4 | glycan array binding signal (z-score) [11]: -1.38 | glycan array binding signal (z-score) [12]: 0.285 | glycan array binding signal (z-score) [13]: 4.35 | glycan array binding signal (z-score) [14]: -0.353 | glycan array binding signal (z-score) [15]: -0.782 | glycan array binding signal (z-score) [16]: -0.78 | glycan array binding signal (z-score) [17]: 2.17 | glycan array binding signal (z-score) [18]: 1.67 | glycan array binding signal (z-score) (GlcNAc(b1-3)Gal): -0.157 | glycan array binding signal (z-score) [19]: 0.093 | glycan array binding signal (z-score) (GlcNAc(b1-3)Gal(b1-4)Glc): -1.32 | glycan array binding signal (z-score) [20]: -1.54
